PubChem BioAssay AID504764, Drosophila RNAi Screening Center – 2011
The deposit covers about 22,000 reagents; this is an unselected part of those that have a named target and a result. Of all reagents, 403 (1.9%) were called active. 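Unnormalised raw counts per well; ratio z-scores behind the hit calls and whether each hit raises or lowers signal are not deposited.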 Entries without a mark were called inactive. Reagent sequences are not shown. Not given: the amount of reagent.

Aim: 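Genes whose knock-down alters Notch-dependent transcription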 (primary screen)
Cells: Drosophila Kc167 cells
Reagents: long dsRNA against Drosophila genes
Duration: about 5 days (4 days dsRNA, then 24 h after transfection)
Treatment: transfection of constitutively active membrane-tethered Notch lacking the extracellular domain, read 24 h later
Read-out: 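Light from a Notch-responsive E(spl)m3 luciferase reporter under active Notch, with control-promoter and no-Notch reporter wells to normalise; raw counts from paired wells a and b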
Direction: induced reporter light, run 1, well a and induced reporter light, run 1, well b: higher = more light from the Notch target reporter with active Notch; control promoter light, run 1, well a and control promoter light, run 1, well b: higher = more light from the viral control promoter (cell number, transfection, viability); uninduced reporter light, run 1, well a: higher = more light from the Notch target reporter without active Notch
Rule for the call: 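Wells with low control signal or poorly matching duplicates excluded; duplicates averaged; per source plate, z beyond ±2 for induced/control log2 ratio or beyond ±1.8 for induced/uninduced marks a hit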
Calls: active = modifier hit (raised or lowered Notch signal); inactive = not a hit

| target gene | dsRNA | induced reporter light, run 1, well a | induced reporter light, run 1, well b | control promoter light, run 1, well a | control promoter light, run 1, well b | uninduced reporter light, run 1, well a |
| --- | --- | --- | --- | --- | --- | --- |
| CG31441 | DRSC15723 | 50520 | 46720 | 40705 | 35295 | 2560 |
| CG13891 | DRSC08361 | 1.08e5 | 1.05e5 | 2.21e5 | 1.76e5 | 6555 |
| MFS14 | DRSC06524 | 1.03e5 | 1.10e5 | 1.98e5 | 1.51e5 | 8490 |
| CG8441 | DRSC07180 | 92455 | 98465 | 2.00e5 | 2.31e5 | 9810 |
| su(sable) | DRSC18839 | 79365 | 83315 | 1.87e5 | 1.81e5 | 6985 |
| CG43672 | DRSC19452 | 62740 | 64080 | 68420 | 70450 | 8665 |
| CG43672 | DRSC20108 | 83195 | 83070 | 1.02e5 | 85995 | 12690 |
| Or94b | DRSC16773 | 1.63e5 | 1.86e5 | 2.34e5 | 2.31e5 | 15105 |
| Fad2 | DRSC11165 | 1.47e5 | 1.44e5 | 3.19e5 | 2.19e5 | 7540 |
| Trim9 | DRSC02242 | 1.42e5 | 1.59e5 | 74980 | 98740 | 16270 |
| CG2767 | DRSC15451 | 1.66e5 | 1.35e5 | 1.15e5 | 88045 | 9410 |
| be | DRSC19607 | 2.25e5 | 1.75e5 | 2.31e5 | 2.15e5 | 12890 |
| be | DRSC19944 | 97920 | 1.23e5 | 1.15e5 | 82365 | 15325 |
| be | DRSC19945 | 82555 | 79110 | 99010 | 84250 | 9715 |
| CG7378 | DRSC20041 | 75965 | 1.01e5 | 98715 | 1.24e5 | 11105 |
| MstProx | DRSC12458 | 1.65e5 | 1.31e5 | 1.43e5 | 1.39e5 | 10160 |
| MstProx | DRSC12601 | 79380 | 1.16e5 | 99685 | 83605 | 5420 |
| CG16779 | DRSC15153 | 95770 | 79740 | 1.06e5 | 69405 | 4545 |
| gammaTub37C | DRSC03535 | 2.39e5 | 2.63e5 | 1.98e5 | 2.22e5 | 19820 |
| CG17982 | DRSC18143 | 1.30e5 | 1.28e5 | 2.36e5 | 2.14e5 | 10460 |

A few values from the entries so far:
For “induced reporter light, run 1, well b”, MstProx [DRSC12601] reads 1.16e5
Result of CG17982 [DRSC18143] in “uninduced reporter light, run 1, well a”: 10460
Value of CG43672 [DRSC19452] under “control promoter light, run 1, well a”: 68420
